These are literature values, as cited in patent EP3875080B1, “DOSAGE FORM PROVIDING PROLONGED RELEASE OF TAPENTADOL PHOSPHORIC ACID SALT” (priority 2020, dated 2021).

The conditions of the series: in vivo; cited from earlier work.

For `CN1CC[C@]23c4c5ccc(O)c4O[C@H]2[C@@H](O)C=C[C@H]3[C@H]1C5` [Morphine], the “Maximum individual Cmax ratio with 40% alcohol” value was 4.54 and the “mean increase in Cmax ratio relative to drug co-ingested with 0% alcohol” value is 1.0.
